{"source": "paper PMC8473724", "binders": {"B1": {"name": "guanine nucleotide exchange factor VAV1 (protein, UniProt P15498 1-845)", "chain": "MELWRQCTHWLIQCRVLPPSHRVTWDGAQVCELAQALRDGVLLCQLLNNLLPHAINLREVNLRPQMSQFLCLKNIRTFLSTCCEKFGLKRSELFEAFDLFDVQDFGKVIYTLSALSWTPIAQNRGIMPFPTEEESVGDEDIYSGLSDQIDDTVEEDEDLYDCVENEEAEGDEIYEDLMRSEPVSMPPKMTEYDKRCCCLREIQQTEEKYTDTLGSIQQHFLKPLQRFLKPQDIEIIFINIEDLLRVHTHFLKEMKEALGTPGAANLYQVFIKYKERFLVYGRYCSQVESASKHLDRVAAAREDVQMKLEECSQRANNGRFTLRDLLMVPMQRVLKYHLLLQELVKHTQEAMEKENLRLALDAMRDLAQCVNEVKRDNETLRQITNFQLSIENLDQSLAHYGRPKIDGELKITSVERRSKMDRYAFLLDKALLICKRRGDSYDLKDFVNLHSFQVRDDSSGDRDNKKWSHMFLLIEDQGAQGYELFFKTRELKKKWMEQFEMAISNIYPENATANGHDFQMFSFEETTSCKACQMLLRGTFYQGYRCHRCRASAHKECLGRVPPCGRHGQDFPGTMKKDKLHRRAQDKKRNELGLPKMEVFQEYYGLPPPPGAIGPFLRLNPGDIVELTKAEAEQNWWEGRNTSTNEIGWFPCNRVKPYVHGPPQDLSVHLWYAGPMERAGAESILANRSDGTFLVRQRVKDAAEFAISIKYNVEVKHIKIMTAEGLYRITEKKAFRGLTELVEFYQQNSLKDCFKSLDTTLQFPFKEPEKRTISRPAVGSTKYFGTAKARYDFCARDRSELSLKEGDIIKILNKKGQQGWWRGEIYGRVGWFPANYVEEDYSEYC"}, "B2": {"name": "PLCγ2 (enzyme, UniProt P16885 1-1265)", "chain": "MSTTVNVDSLAEYEKSQIKRALELGTVMTVFSFRKSTPERRTVQVIMETRQVAWSKTADKIEGFLDIMEIKEIRPGKNSKDFERAKAVRQKEDCCFTILYGTQFVLSTLSLAADSKEDAVNWLSGLKILHQEAMNASTPTIIESWLRKQIYSVDQTRRNSISLRELKTILPLINFKVSSAKFLKDKFVEIGAHKDELSFEQFHLFYKKLMFEQQKSILDEFKKDSSVFILGNTDRPDASAVYLHDFQRFLIHEQQEHWAQDLNKVRERMTKFIDDTMRETAEPFLFVDEFLTYLFSRENSIWDEKYDAVDMQDMNNPLSHYWISSSHNTYLTGDQLRSESSPEAYIRCLRMGCRCIELDCWDGPDGKPVIYHGWTRTTKIKFDDVVQAIKDHAFVTSSFPVILSIEEHCSVEQQRHMAKAFKEVFGDLLLTKPTEASADQLPSPSQLREKIIIKHKKLGPRGDVDVNMEDKKDEHKQQGELYMWDSIDQKWTRHYCAIADAKLSFSDDIEQTMEEEVPQDIPPTELHFGEKWFHKKVEKRTSAEKLLQEYCMETGGKDGTFLVRESETFPNDYTLSFWRSGRVQHCRIRSTMEGGTLKYYLTDNLTFSSIYALIQHYRETHLRCAEFELRLTDPVPNPNPHESKPWYYDSLSRGEAEDMLMRIPRDGAFLIRKREGSDSYAITFRARGKVKHCRINRDGRHFVLGTSAYFESLVELVSYYEKHSLYRKMRLRYPVTPELLERYNMERDINSLYDVSRMYVDPSEINPSMPQRTVKALYDYKAKRSDELSFCRGALIHNVSKEPGGWWKGDYGTRIQQYFPSNYVEDISTADFEELEKQIIEDNPLGSLCRGILDLNTYNVVKAPQGKNQKSFVFILEPKQQGDPPVEFATDRVEELFEWFQSIREITWKIDTKENNMKYWEKNQSIAIELSDLVVYCKPTSKTKDNLENPDFREIRSFVETKADSIIRQKPVDLLKYNQKGLTRVYPKGQRVDSSNYDPFRLWLCGSQMVALNFQTADKYMQMNHALFSLNGRTGYVLQPESMRTEKYDPMPPESQRKILMTLTVKVLGARHLPKLGRSIACPFVEVEICGAEYDNNKFKTTVVNDNGLSPIWAPTQEKVTFEIYDPNLAFLRFVVYEEDMFSDPNFLAHATYPIKAVKSGFRSVPLKNGYSEDIELASLLVFCEMRPVLESEEELYSSCRQLRRRQEELNNQLFLYDTHQNLRNANRDALVKEFSVNENQLQLYQEKCNKRLREKRVSNSKFYS"}, "B3": {"name": "B cell adapter for phosphoinositide 3-kinase (BCAP) (protein, UniProt Q6ZUJ8 1-805)", "chain": "MAASGVPRGCDILIVYSPDAEEWCQYLQTLFLSSRQVRSQKILTHRLGPEASFSAEDLSLFLSTRCVVVLLSAELVQHFHKPALLPLLQRAFHPPHRVVRLLCGVRDSEEFLDFFPDWAHWQELTCDDEPETYVAAVKKAISEDSGCDSVTDTEPEDEKVVSYSKQQNLPTVTSPGNLMVVQPDRIRCGAETTVYVIVRCKLDDRVATEAEFSPEDSPSVRMEAKVENEYTISVKAPNLSSGNVSLKIYSGDLVVCETVISYYTDMEEIGNLLSNAANPVEFMCQAFKIVPYNTETLDKLLTESLKNNIPASGLHLFGINQLEEEDMMTNQRDEELPTLLHFAAKYGLKNLTALLLTCPGALQAYSVANKHGHYPNTIAEKHGFRDLRQFIDEYVETVDMLKSHIKEELMHGEEADAVYESMAHLSTDLLMKCSLNPGCDEDLYESMAAFVPAATEDLYVEMLQASTSNPIPGDGFSRATKDSMIRKFLEGNSMGMTNLERDQCHLGQEEDVYHTVDDDEAFSVDLASRPPVPVPRPETTAPGAHQLPDNEPYIFKVFAEKSQERPGNFYVSSESIRKGPPVRPWRDRPQSSIYDPFAGMKTPGQRQLITLQEQVKLGIVNVDEAVLHFKEWQLNQKKRSESFRFQQENLKRLRDSITRRQREKQKSGKQTDLEITVPIRHSQHLPAKVEFGVYESGPRKSVIPPRTELRRGDWKTDSTSSTASSTSNRSSTRSLLSVSSGMEGDNEDNEVPEVTRSRSPGPPQVDGTPTMSLERPPRVPPRAASQRPPTRETFHPPPPVPPRGR"}, "B4": {"name": "Rho GTPase-activating protein 12 (ARHGAP12) (protein, UniProt Q8IWW6 1-846)", "chain": "MKMADRSGKIIPGQVYIEVEYDYEYEAKDRKIVIKQGERYILVKKTNDDWWQVKPDENSKAFYVPAQYVKEVTRKALMPPVKQVAGLPNNSTKIMQSLHLQRSTENVNKLPELSSFGKPSSSVQGTGLIRDANQNFGPSYNQGQTVNLSLDLTHNNGKFNNDSHSPKVSSQNRTRSFGHFPGPEFLDVEKTSFSQEQSCDSAGEGSERIHQDSESGDELSSSSTEQIRATTPPNQGRPDSPVYANLQELKISQSALPPLPGSPAIQINGEWETHKDSSGRCYYYNRGTQERTWKPPRWTRDASISKGDFQNPGDQELLSSEENYYSTSYSQSDSQCGSPPRGWSEELDERGHTLYTSDYTNEKWLKHVDDQGRQYYYSADGSRSEWELPKYNASSQQQREIIKSRSLDRRLQEPIVLTKWRHSTIVLDTNDKESPTASKPCFPENESSPSSPKHQDTASSPKDQEKYGLLNVTKIAENGKKVRKNWLSSWAVLQGSSLLFTKTQGSSTSWFGSNQSKPEFTVDLKGATIEMASKDKSSKKNVFELKTRQGTELLIQSDNDTVINDWFKVLSSTINNQAVETDEGIEEEIPDSPGIEKHDKEKEQKDPKKLRSFKVSSIDSSEQKKTKKNLKKFLTRRPTLQAVREKGYIKDQVFGSNLANLCQRENGTVPKFVKLCIEHVEEHGLDIDGIYRVSGNLAVIQKLRFAVNHDEKLDLNDSKWEDIHVITGALKMFFRELPEPLFTFNHFNDFVNAIKQEPRQRVAAVKDLIRQLPKPNQDTMQILFRHLRRVIENGEKNRMTYQSIAIVFGPTLLKPEKETGNIAVHTVYQNQIVELILLELSSIFGR"}}, "note": "Results are given in words; binding and its absence hold for the method and conditions named. Binding seen in cells or lysates may run through a third protein. Here binding means that the protein was enriched with, or labelled near, the bait; the list need not be complete. Sequences can lack the tags named with a protein."}
{"target": "T1, FLAG-PTP1B D181A-Y46F substrate trapping mutant (full-length) (UniProt P18031)", "T1 sequence": "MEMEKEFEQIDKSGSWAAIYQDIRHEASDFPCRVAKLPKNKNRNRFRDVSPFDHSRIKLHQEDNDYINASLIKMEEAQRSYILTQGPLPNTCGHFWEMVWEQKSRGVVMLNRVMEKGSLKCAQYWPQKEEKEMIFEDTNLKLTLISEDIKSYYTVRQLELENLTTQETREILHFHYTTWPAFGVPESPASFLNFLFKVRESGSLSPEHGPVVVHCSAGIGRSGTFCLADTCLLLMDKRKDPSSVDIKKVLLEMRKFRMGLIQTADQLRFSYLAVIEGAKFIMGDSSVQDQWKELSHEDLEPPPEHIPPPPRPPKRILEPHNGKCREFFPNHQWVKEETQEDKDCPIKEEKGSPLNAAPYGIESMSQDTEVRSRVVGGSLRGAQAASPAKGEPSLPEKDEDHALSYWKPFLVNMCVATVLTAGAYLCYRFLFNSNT", "test": "affinity purification with mass spectrometry; SILAC substrate trapping: anti-FLAG co-IP from PTP1B KO Ramos cells with empty vector, FLAG-PTP1B-D181A-Y46F or its Δ406-435 form; elution with FLAG peptide, SDS-PAGE, in-gel digestion, LC-MS; hits: mean SILAC ratio >= 2 and P < 0.05 (n = 3)"}
{"binder": "B1", "binding": "binds"}
{"binder": "B2", "binding": "binds"}
{"binder": "B3", "binding": "binds"}
{"binder": "B4", "binding": "binds"}
